Binding data for two molecules are collected here from paper PMC8597243.

Chains of the proteins cited; added tags and fusions are not shown. Residues count along the entry.
UniProt Q96I51, residues 38-464: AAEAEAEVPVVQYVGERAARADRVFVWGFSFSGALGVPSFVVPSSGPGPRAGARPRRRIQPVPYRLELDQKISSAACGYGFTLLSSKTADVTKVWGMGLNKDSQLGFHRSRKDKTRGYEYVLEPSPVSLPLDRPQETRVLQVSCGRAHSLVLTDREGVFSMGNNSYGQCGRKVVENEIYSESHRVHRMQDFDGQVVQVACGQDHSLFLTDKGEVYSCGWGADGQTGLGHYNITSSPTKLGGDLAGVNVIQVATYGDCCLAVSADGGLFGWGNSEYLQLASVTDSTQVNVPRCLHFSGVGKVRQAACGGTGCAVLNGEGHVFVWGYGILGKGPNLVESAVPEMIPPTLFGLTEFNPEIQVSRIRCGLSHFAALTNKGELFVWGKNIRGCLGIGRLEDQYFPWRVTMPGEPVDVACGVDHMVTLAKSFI

No constants are given. Whether binding was seen depends on the method and setting. In cells and extracts the contact can be indirect. Some entries that bind do so weakly or less than the wild type.

For assay [1], the target named is endogenous NME1 (human (endogenous in MDA-MB-231T)), P15531. The assay can be described thus: co-IP; MDA-MB-231T lysate (TEEN buffer: 50 mM Tris pH 7.4, 0.5% NP40, 150 mM NaCl, 5 mM EDTA), 200 µg input; anti-NME1, anti-NME6 or anti-RCC1L on Dynabeads protein G, overnight at 4 °C; Western blot. Particulars: remark: other sources report otherwise.
The target in assay [2] is RCC1-like G exchanging factor-like protein (RCC1L) (human (endogenous in MDA-MB-231T)) (UniProt Q96I51). The assay can be described thus: proximity ligation; in situ PLA (Duolink) on fixed, permeabilized MDA-MB-231T cells (Ctrl) or the clone KI-186-18 stably overexpressing NME6-186-FLAG; confocal microscopy.

B1: endogenous NME2, P22392 1-152 (protein)
chain: MANLERTFIAIKPDGVQRGLVGEIIKRFEQKGFRLVAMKFLRASEEHLKQHYIDLKDRPFFPGLVKYMNSGPVVAMVWEGLNVVKTGRVMLGETNPADSKPGTIRGDFCIQVGRNIIHGSDSVKSAEKEISLWFKPEELVDYKSCAHDWVYE
For the molecule B1, in assay [1], the binding result is recorded as “binds”.

B2: endogenous NME4 (protein, UniProt O00746 29-187)
chain: GSGGPSWTRERTLVAVKPDGVQRRLVGDVIQRFERRGFTLVGMKMLQAPESVLAEHYQDLRRKPFYPALIRYMSSGPVVAMVWEGYNVVRASRAMIGHTDSAEAAPGTIRGDFSVHISRNVIHASDSVEGAQREIQLWFQSSELVSWADGGQHSSIHPA
Turning to B2, the binding entry in assay [2] is recorded as “binds”.
